Assay results published in patent US20060099713A1.
These are yes or no findings as the source states them, for the method shown. Some binding calls cover weakened binding; strength is not graded here. Sequences can lack the tags named with a protein. Values belong to the binder of their own block, whether it stands above or below them.

Chains of the proteins cited; added tags and fusions are not shown. Residues count along the entry.
UniProt P46935, residues 455-498: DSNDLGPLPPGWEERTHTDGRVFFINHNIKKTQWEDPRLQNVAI

Target: third WW domain of the mouse Nedd4 ubiquitin protein ligase (Nedd4-WW3) (mouse) (UniProt P46935)
Assay: TAIS screen of T7 phage-displayed human brain cDNA library

- binding: binds
B1: polypeptide from lysosomal-associated multispanning membrane protein-5 (LAPTM5) selected by Nedd4-WW3 (peptide, not shown: large carriers)
peptide: SSYRLIKCMNSVEEKRNSKMLQKVVLPSYEEALSLPSKTPEGGPAPPPYSEV

- binding: binds
B2: polypeptide from Nogo-A protein short form (390-491) selected by Nedd4-WW3 (peptide, not shown: large carriers)
peptide: SAVPSAGASVIQPSSSPLEASSVNYESIKHEPENPPPYEEAMSVSLKKVSGIKEEIKEPENINAALQETEAPYISIACDLIKETKLSAEPAPDFSDYSEMAK

- binding: binds
B3: polypeptide from N-chimaerin homolog (DKFZp434A1010) selected by Nedd4-WW3 (peptide, not shown: large carriers)
peptide: GPRTPHRVPGPWGPPEPLLLYRAAPPAYGRGGELHRGSLYRNGGQRGEGAGPPPPYPTPSWSLHSEGQTRSYC

- binding: binds
Binder: STPEKTDMTPSTTSPPSYDSVTKPEKEKFEKDKSEKEDKGKDIRESKK (peptide, not shown: large carriers; small tags and cut ends) [polypeptide from voltage-gated sodium channel type II alpha subunit (SCN2A) selected by Nedd4-WW3]
